Source: publication PMC6445127, “WNT5A is transported via lipoprotein particles in the cerebrospinal fluid to regulate hindbrain morphogenesis” (Nature Communications, 2019)
Results are given in words; binding and its absence hold for the method and conditions named. Binding can be weak; no strength is given.

Target: human LDL lipoprotein fraction (native LDL) (human)
Assay: molecular sieve assay (150 kDa cut-off filtration) + KBr gradient ultracentrifugation; 100 ng recombinant WNT5A incubated with 50 ug native LDL in 800 µl serum-free DMEM for 4 h at 37 °C, filtered through a 150 kDa cut-off concentrator; the >150 kDa fraction separated into VLDL, LDL and HDL on a KBr gradient; western blot; both purified

binding: binds
B1: recombinant WNT5A (ligand, UniProt P22725 62-380, looked up)
chain: IIGAQPLCSQLAGLSQGQKKLCHLYQDHMQYIGEGAKTGIKECQYQFRHRRWNCSTVDNTSVFGRVMQIGSRETAFTYAVSAAGVVNAMSRACREGELSTCGCSRAARPKDLPRDWLWGGCGDNIDYGYRFAKEFVDARERERIHAKGSYESARILMNLHNNEAGRRTVYNLADVACKCHGVSGSCSLKTCWLQLADFRKVGDALKEKYDSAAAMRLNSRGKLVQVNSRFNSPTTQDLVYIDPSPDYCVRNESTGSLGTQGRLCNKTSEGMDGCELMCCGRGYDQFKTVQTERCHCKFHWCCYVKCKKCTEIVDQFVCK
notes: recombinant WNT5A, R&D Systems; 'P22725' is printed where a catalogue number would stand; elsewhere the catalogue number 645-WN-010 is printed; WNT5A'; also called rcWNT5A; rcWnt5a; source: bought: R&D Systems
